Results are given in words; binding and its absence hold for the method and conditions named. A result given as binding can be weak or reduced; the word gives no strength.
How the values were obtained:
human TLR4/MD2 (human) [1] = assay: SPR; Biacore 3000, inhibition format: S100A9 (50 nM), S100A4 (100 nM) or ~1.3 µg/mL S100A4, S100A9 and their 1:1 mixture, pre-incubated with oxyclozanide (OX), injected over RAGE or TLR4/MD2 immobilised on a CM5 chip (~3 kRU); HBS-P with 1 mM Ca++, 20 µM Zn++, 1% DMSO; both purified
[2] = target: human RAGE (receptor for advanced glycation end-products) (human) (UniProt Q15109); assay: as above
human TLR4/MD2 (human) [3] = assay: SPR; S100A4, S100A9 and a 1:1 mixture of S100A4/9 injected (2 min at 30 µL/min) over immobilised RAGE or TLR4; no competitor; both purified
[4] = target: human RAGE (receptor for advanced glycation end-products) (human) (UniProt Q15109); assay: as above
[5] = target: human RAGE (receptor for advanced glycation end-products) (human) (UniProt Q15109); assay: SPR; inhibition with 0.98-500 ng/mL heparan sulfate (HS): ~1.3 µg/mL S100A4, S100A9 or the 1:1 mixture injected over immobilised RAGE; 1 mM Ca++, 20 µM Zn++, no DMSO; both purified

Amino acid sequences for entries named in this document (tags omitted). A change or cut given only in a name is not applied to a line headed by its entry.
UniProt Q15109: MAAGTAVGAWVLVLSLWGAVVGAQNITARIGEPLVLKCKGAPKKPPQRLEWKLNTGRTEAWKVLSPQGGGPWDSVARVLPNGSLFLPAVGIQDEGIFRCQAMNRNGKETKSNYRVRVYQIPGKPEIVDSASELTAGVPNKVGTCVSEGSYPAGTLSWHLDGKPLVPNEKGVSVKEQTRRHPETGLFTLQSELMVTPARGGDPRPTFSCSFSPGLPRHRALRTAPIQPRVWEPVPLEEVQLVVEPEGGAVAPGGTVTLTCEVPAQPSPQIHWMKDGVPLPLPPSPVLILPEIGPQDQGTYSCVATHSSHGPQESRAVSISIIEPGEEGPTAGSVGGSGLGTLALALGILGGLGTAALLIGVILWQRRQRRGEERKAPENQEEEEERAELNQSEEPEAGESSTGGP

Measured: binding

B1: recombinant human S100A9 (protein, UniProt P06702 1-114)
chain: MTCKMSQLERNIETIINTFHQYSVKLGHPDTLNQGEFKELVRKDLQNFLKKENKNEKVIEHIMEDLDTNADKQLSFEEFIMLMARLTWASHEKMHEGDEGPGHHHKPGLGEGTP
binds: all assays above
